Laboratory results taken from PubChem BioAssay.
Inconclusive means that the source gave no clear call. Such entries were picked first, then a sample of the others. For some of these results: Where the call is inconclusive, the potency comes from a doubtful curve fit. Active and inactive are the calls of the source. Unless noted, the limit is not given here; nearly all actives have AC50 up to about 26 µM.

The chains behind the UniProt entries cited, without tags or fusion partners.
UniProt P08183, whole entry, looked up: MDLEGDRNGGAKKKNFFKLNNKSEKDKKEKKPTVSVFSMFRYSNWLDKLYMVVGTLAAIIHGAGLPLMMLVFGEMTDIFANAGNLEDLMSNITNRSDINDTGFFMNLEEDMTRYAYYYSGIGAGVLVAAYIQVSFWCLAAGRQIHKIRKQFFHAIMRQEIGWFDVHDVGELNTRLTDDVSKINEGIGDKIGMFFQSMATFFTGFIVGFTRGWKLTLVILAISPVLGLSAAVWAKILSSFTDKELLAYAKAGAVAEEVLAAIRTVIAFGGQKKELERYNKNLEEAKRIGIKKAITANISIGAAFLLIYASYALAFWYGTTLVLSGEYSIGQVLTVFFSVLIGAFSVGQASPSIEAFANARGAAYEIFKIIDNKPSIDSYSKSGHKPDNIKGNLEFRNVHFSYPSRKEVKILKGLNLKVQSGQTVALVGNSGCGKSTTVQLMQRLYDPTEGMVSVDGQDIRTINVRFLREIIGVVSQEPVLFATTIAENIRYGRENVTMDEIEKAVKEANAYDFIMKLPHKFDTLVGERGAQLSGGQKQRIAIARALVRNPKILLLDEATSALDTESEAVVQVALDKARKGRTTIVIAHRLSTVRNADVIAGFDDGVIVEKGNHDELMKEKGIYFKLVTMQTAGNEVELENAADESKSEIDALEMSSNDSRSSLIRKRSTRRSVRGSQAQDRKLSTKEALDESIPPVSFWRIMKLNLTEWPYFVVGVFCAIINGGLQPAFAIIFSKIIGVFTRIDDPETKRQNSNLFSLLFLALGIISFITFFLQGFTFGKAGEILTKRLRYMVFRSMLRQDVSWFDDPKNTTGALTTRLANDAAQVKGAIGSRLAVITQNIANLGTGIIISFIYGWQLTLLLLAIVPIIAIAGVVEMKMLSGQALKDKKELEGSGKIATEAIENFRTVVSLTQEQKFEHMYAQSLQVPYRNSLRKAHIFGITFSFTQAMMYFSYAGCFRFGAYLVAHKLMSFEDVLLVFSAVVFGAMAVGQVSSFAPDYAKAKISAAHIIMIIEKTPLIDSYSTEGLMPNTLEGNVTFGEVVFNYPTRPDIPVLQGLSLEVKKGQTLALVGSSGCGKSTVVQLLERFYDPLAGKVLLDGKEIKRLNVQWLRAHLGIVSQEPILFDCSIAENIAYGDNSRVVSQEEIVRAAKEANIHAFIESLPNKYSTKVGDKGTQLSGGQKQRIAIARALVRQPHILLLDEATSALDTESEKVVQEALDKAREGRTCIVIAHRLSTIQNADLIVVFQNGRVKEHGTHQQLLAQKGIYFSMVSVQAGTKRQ

Assays:
[1] = growth inhibition of DIPG glioma cells, dose response, cell-based, SU-DIPG-XVII, MIPE5.0, CellTiter-Glo, qHTS (AID 1347060); details: SU-DIPG-XVII viability, CellTiter-Glo ATP luminescence;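 as to AC50: cells exposed to compound for 48 hours before viability readout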
[2] = growth inhibition of DIPG glioma cells, dose response, cell-based, JHH-DIPG-1, MIPE4.0, CellTiter-Glo, qHTS (AID 1347062; cut-off not given, nearly all actives have AC50 up to about 27 µM;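 as to AC50: cells exposed to compound for two days before readout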); details: JHH-DIPG-1 viability, CellTiter-Glo ATP luminescence
[3] = growth inhibition of DIPG glioma cells, dose response, cell-based, SU-DIPG-IV, MIPE4.0, CellTiter-Glo, qHTS (AID 1347063; cut-off not given, nearly all actives have AC50 up to about 30 µM;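 also: compound exposure lasted 48 hours before the viability readout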); details: SU-DIPG-IV viability, CellTiter-Glo ATP luminescence
[4] = growth inhibition of DIPG glioma cells, dose response, cell-based, SU-DIPG-XIII, MIPE5.0, CellTiter-Glo, qHTS (AID 1347064; cut-off not given, nearly all actives have AC50 up to about 23 µM;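 as to AC50: cells exposed to compound for 48 hours before the viability read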); details: SU-DIPG-XIII viability, CellTiter-Glo ATP luminescence
[5] = SU-DIPG-VI glioma cell viability, MIPE4.0 library, CellTiter-Glo luminescence, qHTS (AID 1347066; cut-off not given, nearly all actives have AC50 up to about 30 µM;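 also: cells exposed to compound for 48 hours before readout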); details: CellTiter-Glo ATP luminescence
[6] = JHH-DIPG-1 glioma cell viability, MIPE5.0 library, CellTiter-Glo luminescence, qHTS (AID 1347067); details: JHH-DIPG-1 glioma viability, CellTiter-Glo ATP luminescence;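 also: cells exposed to compound for 48 hours before readout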
[7] = SU-DIPG-XXV glioma cell viability, MIPE5.0 library, qHTS (AID 1347068; cut-off not given, nearly all actives have IC50 up to about 30 µM;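 as to IC50: cells exposed to compound for 48 hours before viability readout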)
[8] = molecular target: ATP-dependent translocase ABCB1 (Homo sapiens) (UniProt P08183); assay: MDR1 (ABCB1) efflux transporter inhibition, cell-based (AID 377; in the data active = fluorescence slope change above about 50%; inconclusive = mostly about 31% to 49%); details: MDR1-expressing cells, fluorescent substrate accumulation slope; hits give high values; concentration not given here
[9] = viability loss in pontine glioma line – cell-based, SU-DIPG-XXV, MIPE5.0, CellTiter-Glo, qHTS, dose response (AID 1347065); details: CellTiter-Glo ATP luminescence;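 also: cells exposed to compound for 48 hours before ATP readout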
[10] = inhibitors of polyQ aggregate elongation, biochemical, solid-phase synthetic aggregates, QA3 (AID 1585; call rule not given here); details: biotin-polyQ incorporation, at 100 µM, hits give high values
[11] = polyglutamine aggregation reduction, turbidity readout, qthio, single concentration 25 µM screen (AID 1588; call rule not given here); details: at 25 µM, hits give low values
[12] = enhancers of SMN2 over SMN1 splicing, cell-based, SMN2/SMN1 luciferase reporters (AID 1598; call rule not given here); details: SMN2 vs SMN1 luciferase splicing reporter cells; at 10 µM; hits give high values

Q: What does the source list for `CN1CCc2c(n(Cc3ccc(C(=O)NO)cc3)c3ccccc23)C1`?
A: AC50 [1]: inconclusive: 33.2 µM [cytotoxic]; AC50 [2]: active: 23.5 µM; AC50 [3]: inconclusive: 33.2 µM [cytotoxic]; AC50 [4]: inconclusive: 26.3 µM [cytotoxic]; AC50 [5]: inconclusive: 37.2 µM [cytotoxic]; AC50 [6]: inconclusive: 37.2 µM [cytotoxic]; IC50 [7]: inconclusive: 33.2 µM [cytotoxic]

Q: For `N#CC1(c2ccc(NC(=O)c3cccnc3NCc3ccncc3)cc2)CCCC1`, which outcome [1] is on record?
A: inactive

Q: What about the AC50 [2] of the same compound?
A: inconclusive: 37.2 µM [cytotoxic]

Q: What about the AC50 [3] of the same compound?
A: inconclusive: 18.7 µM [cytotoxic]

Q: What about the outcome [4] of the same compound?
A: inactive

Q: And the outcome [5]?
A: inactive

Q: And the outcome [6]?
A: inactive

Q: And the outcome [7]?
A: inactive

Q: What does the source list for `N#Cc1c(O)c2c(-c3ccc(-c4ccccc4O)cc3)csc2[nH]c1=O`?
A: outcome [1]: inactive; outcome [2]: inactive; outcome [3]: inactive; AC50 [4]: inconclusive: 37.2 µM; outcome [5]: inactive

Q: For `CN(C)N=Nc1nc[nH]c1C(N)=O`, which fluorescence slope change [8] is on record?
A: inconclusive: 44.8%

Q: And the AC50 [1]?
A: inconclusive: 20.9 µM [cytotoxic]

Q: And the AC50 [2]?
A: inconclusive: 9.35 µM [cytotoxic]

Q: What about the outcome [3] of the same compound?
A: inactive

Q: What about the outcome [4] of the same compound?
A: inactive

Q: What about the AC50 [9] of the same compound?
A: inconclusive: 23.5 µM [cytotoxic]

Q: And the AC50 [5]?
A: inconclusive: 0.105 µM [cytotoxic]

Q: What about the IC50 [7] of the same compound?
A: inconclusive: 3.32 µM [cytotoxic]

Q: What does the source list for `CCNC(=O)CCC/C=C\C[C@@H]1[C@@H](/C=C/C(O)CCc2ccccc2)[C@@H](O)C[C@@H]1O` (stereo partly specified)?
A: outcome [1]: inactive; outcome [2]: inactive; outcome [3]: inactive; AC50 [4]: inconclusive: 0.0118 µM [cytotoxic]; outcome [9]: inactive; outcome [5]: inactive; outcome [7]: inactive

Q: What does the source list for `COc1cc(C(C)C)c2c(c1)S(=O)(=O)N(COc1cc(=O)n3cccc(OCCN4CCCCC4)c3n1)C2=O`?
A: AC50 [1]: active: 23.5 µM; AC50 [2]: inconclusive: 37.2 µM [cytotoxic]; AC50 [3]: inconclusive: 37.2 µM [cytotoxic]; AC50 [4]: inconclusive: 37.2 µM [cytotoxic]; AC50 [5]: inconclusive: 23.5 µM [cytotoxic]; AC50 [6]: inconclusive: 33.2 µM [cytotoxic]; IC50 [7]: inconclusive: 18.6 µM [cytotoxic]

Q: With `O=C(O)c1cc(O)c2c(c1)C(=O)c1cccc(O)c1C2=O` as the compound, how does the AC50 [1] read?
A: inconclusive: 18.6 µM [cytotoxic]

Q: And the outcome [2]?
A: inactive

Q: And the outcome [3]?
A: inactive

Q: And the outcome [4]?
A: inactive

Q: And the AC50 [9]?
A: inconclusive: 16.6 µM [cytotoxic]

Q: What about the AC50 [5] of the same compound?
A: inconclusive: 15.2 µM [cytotoxic]

Q: And the outcome [6]?
A: inactive

Q: With `C[C@@H](CN1CC(=O)NC(=O)C1)N1CC(=O)NC(=O)C1` as the compound, how does the AC50 [1] read?
A: inconclusive: 16.6 µM [cytotoxic]

Q: What about the AC50 [2] of the same compound?
A: inconclusive: 0.469 µM [cytotoxic]

Q: And the outcome [3]?
A: inactive

Q: And the outcome [4]?
A: inactive

Q: What about the outcome [9] of the same compound?
A: inactive

Q: And the AC50 [5]?
A: inconclusive: 0.00209 µM

Q: And the AC50 [6]?
A: inconclusive: 14.8 µM [cytotoxic]

Q: What about the outcome [7] of the same compound?
A: inactive

Q: With `CC1(C)CCC(CN2CCN(c3ccc(C(=O)NS(=O)(=O)c4ccc(NCC5CCOCC5)c([N+](=O)[O-])c4)c(Oc4cnc5[nH]ccc5c4)c3)CC2)=C(c2ccc(Cl)cc2)C1` as the compound, how does the AC50 [1] read?
A: active: 18.6 µM

Q: What about the AC50 [2] of the same compound?
A: inconclusive: 29.6 µM [cytotoxic]

Q: And the AC50 [3]?
A: active: 10.5 µM

Q: And the AC50 [4]?
A: inconclusive: 33.2 µM [cytotoxic]

Q: And the AC50 [5]?
A: active: 7.43 µM

Q: Which results are given for `Oc1ccc(OCc2ccccc2)cc1`?
A: outcome [1]: inactive; outcome [2]: inactive; outcome [3]: inactive; outcome [4]: inactive; outcome [9]: inactive; outcome [5]: inactive; outcome [6]: inactive; IC50 [7]: inconclusive: 4.17 µM [cytotoxic]

Q: With `CCN(CCO)CCCC(C)Nc1ccnc2cc(Cl)ccc12` (stereo unspecified) as the compound, how does the inhibition [10] read?
A: inconclusive: 13.8%

Q: And the aggregation (% of control) [11]?
A: inconclusive: 112%

Q: And the SMN2/SMN1 luciferase ratio [12]?
A: inconclusive: 1.06

Q: And the outcome [1]?
A: inactive

Q: What about the outcome [2] of the same compound?
A: inactive

Q: What about the outcome [3] of the same compound?
A: inactive

Q: And the outcome [4]?
A: inactive

Q: And the AC50 [9]?
A: inconclusive: 0.000372 µM [cytotoxic]

Q: Which AC50 [1] does the source give for `COc1cccc2c1CCCC2CCCN1CCN(C2CCCCC2)CC1` (stereo unspecified) here?
A: inconclusive: 8.33 µM [cytotoxic]

Q: And the AC50 [2]?
A: inconclusive: 18.7 µM [cytotoxic]

Q: What about the AC50 [3] of the same compound?
A: active: 18.7 µM

Q: What about the AC50 [4] of the same compound?
A: inconclusive: 18.6 µM [cytotoxic]

Q: And the AC50 [9]?
A: inconclusive: 18.6 µM [cytotoxic]

Q: And the AC50 [5]?
A: inconclusive: 16.6 µM [cytotoxic]

Q: What about the AC50 [6] of the same compound?
A: inconclusive: 20.9 µM [cytotoxic]

Q: And the IC50 [7]?
A: inconclusive: 37.2 µM [cytotoxic]

Q: Which AC50 [1] does the source give for `O=C(O)c1cccc(-c2noc(-c3ccccc3F)n2)c1` here?
A: inconclusive: 18.6 µM [cytotoxic]

Q: And the AC50 [2]?
A: inconclusive: 29.6 µM [cytotoxic]

Q: And the outcome [3]?
A: inactive

Q: And the AC50 [4]?
A: inconclusive: 18.6 µM [cytotoxic]

Q: What about the AC50 [9] of the same compound?
A: inconclusive: 3.72 µM [cytotoxic]

Q: And the AC50 [6]?
A: inconclusive: 0.332 µM [cytotoxic]
